HELM strings list residues between dots; [ac] is acetyl, [am] amide, other brackets name non-standard units.
Test: peptide synthesis
Conditions: whole synthesis

Substance | final HPLC purity [%]
PEPTIDE1{[XDOTA].A.G.C.K.N.F.F.[dW].K.T.F.T.S.C}$PEPTIDE1,PEPTIDE1,4:R3-15:R3$$$V2.0 | 90
PEPTIDE1{[XDOTA].A.G.C.K.N.F.F.W.K.T.F.T.S.C}$PEPTIDE1,PEPTIDE1,4:R3-15:R3$$$V2.0 | 98

— paper PMC3407795 (EJNMMI Research, 2012)
